Three substances from publication PMC1808117 can be followed below.

Chains of the proteins cited; added tags and fusions are not shown.
UniProt Q15797: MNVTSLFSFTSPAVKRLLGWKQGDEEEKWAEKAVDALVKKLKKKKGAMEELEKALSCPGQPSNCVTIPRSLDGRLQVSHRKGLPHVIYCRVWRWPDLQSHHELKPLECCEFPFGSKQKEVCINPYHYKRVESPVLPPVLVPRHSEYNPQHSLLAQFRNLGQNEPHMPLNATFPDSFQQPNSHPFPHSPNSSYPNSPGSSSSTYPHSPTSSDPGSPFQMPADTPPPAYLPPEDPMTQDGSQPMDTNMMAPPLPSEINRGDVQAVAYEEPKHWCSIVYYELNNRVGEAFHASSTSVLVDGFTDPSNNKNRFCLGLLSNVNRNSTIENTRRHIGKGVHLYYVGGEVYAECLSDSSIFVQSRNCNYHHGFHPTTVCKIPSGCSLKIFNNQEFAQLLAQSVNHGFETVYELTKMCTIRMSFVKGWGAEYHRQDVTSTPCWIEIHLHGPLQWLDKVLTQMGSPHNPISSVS
UniProt Q99717: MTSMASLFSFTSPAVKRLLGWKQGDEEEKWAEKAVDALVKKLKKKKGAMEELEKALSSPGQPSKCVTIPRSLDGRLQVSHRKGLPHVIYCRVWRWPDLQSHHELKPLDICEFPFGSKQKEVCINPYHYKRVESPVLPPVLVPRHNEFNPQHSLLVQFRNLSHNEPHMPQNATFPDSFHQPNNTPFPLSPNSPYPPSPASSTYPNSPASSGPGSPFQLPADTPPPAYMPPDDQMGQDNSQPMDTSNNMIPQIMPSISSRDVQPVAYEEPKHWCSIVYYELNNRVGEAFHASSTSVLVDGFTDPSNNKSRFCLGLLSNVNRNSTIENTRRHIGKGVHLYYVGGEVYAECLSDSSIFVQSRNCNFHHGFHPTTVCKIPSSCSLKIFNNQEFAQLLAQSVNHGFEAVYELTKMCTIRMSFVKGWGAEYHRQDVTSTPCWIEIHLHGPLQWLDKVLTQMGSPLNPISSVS
UniProt O15198: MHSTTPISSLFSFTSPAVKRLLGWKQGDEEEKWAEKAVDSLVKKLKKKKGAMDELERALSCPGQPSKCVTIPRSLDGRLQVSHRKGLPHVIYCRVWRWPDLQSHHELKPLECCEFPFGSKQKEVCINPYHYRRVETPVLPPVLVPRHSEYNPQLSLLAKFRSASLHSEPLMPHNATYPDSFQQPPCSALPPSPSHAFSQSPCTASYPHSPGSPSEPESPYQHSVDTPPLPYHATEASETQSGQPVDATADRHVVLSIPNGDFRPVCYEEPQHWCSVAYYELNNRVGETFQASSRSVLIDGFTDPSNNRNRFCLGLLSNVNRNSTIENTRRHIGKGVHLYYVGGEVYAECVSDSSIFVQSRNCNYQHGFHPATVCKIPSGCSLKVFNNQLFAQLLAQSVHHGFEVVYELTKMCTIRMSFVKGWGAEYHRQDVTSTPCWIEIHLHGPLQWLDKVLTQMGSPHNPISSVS

No constants are given. Whether binding was seen depends on the method and setting. In cells and extracts the contact can be indirect. Where a sequence is shown, tags or fusion partners need not be part of it.

The target of the test is T1, N-terminal GFP-tagged Arkadia (Mus musculus) (UniProt Q99ML9).
T1 sequence: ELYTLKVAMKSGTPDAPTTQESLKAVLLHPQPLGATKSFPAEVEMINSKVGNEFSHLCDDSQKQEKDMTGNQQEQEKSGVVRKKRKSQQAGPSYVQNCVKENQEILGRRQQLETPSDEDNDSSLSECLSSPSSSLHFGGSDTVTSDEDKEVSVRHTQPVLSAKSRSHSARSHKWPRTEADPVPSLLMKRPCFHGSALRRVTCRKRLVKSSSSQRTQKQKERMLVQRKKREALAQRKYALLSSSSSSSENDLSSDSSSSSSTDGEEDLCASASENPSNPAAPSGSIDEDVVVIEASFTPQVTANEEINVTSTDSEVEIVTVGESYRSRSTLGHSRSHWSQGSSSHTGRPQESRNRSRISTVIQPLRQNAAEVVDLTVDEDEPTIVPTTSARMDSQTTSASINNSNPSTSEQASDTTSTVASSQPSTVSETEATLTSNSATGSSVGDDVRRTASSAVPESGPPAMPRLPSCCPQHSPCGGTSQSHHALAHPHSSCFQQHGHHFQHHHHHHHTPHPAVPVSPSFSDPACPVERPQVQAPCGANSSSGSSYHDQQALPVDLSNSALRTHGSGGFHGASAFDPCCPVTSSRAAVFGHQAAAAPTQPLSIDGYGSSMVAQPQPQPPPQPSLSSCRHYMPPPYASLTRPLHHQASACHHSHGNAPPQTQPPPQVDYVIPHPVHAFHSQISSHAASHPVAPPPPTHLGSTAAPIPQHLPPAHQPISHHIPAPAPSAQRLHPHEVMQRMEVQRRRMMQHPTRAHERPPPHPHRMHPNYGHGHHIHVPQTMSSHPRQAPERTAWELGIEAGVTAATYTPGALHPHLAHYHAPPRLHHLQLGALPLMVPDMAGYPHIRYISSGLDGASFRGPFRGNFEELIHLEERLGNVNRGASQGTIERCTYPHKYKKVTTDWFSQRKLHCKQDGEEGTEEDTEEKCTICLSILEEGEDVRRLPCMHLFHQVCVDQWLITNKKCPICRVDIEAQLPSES
The experiment in a line: co-IP; IP with anti-GFP antibody from 293T cells transfected with ALK6*, all three myc-Smad1/5/8 plasmids and GFP or GFP-tagged Arkadia constructs; blotted with anti-P-Smad1/5/8 or anti-GFP.
With “phosphorylated myc-Smad1 (from UniProt Q15797 1-465)”, the binding entry was “no binding”.
Next, “phosphorylated myc-Smad5 (from UniProt Q99717 1-465)”: “no binding”; “phosphorylated myc-Smad8 (from UniProt O15198 1-467)”: “no binding”.
